In this assay the target is T1, gpJ713, C-terminal truncation of bacteriophage lambda gpJ starting from residue 713 (bacteriophage lambda) (UniProt P03749).
T1 sequence: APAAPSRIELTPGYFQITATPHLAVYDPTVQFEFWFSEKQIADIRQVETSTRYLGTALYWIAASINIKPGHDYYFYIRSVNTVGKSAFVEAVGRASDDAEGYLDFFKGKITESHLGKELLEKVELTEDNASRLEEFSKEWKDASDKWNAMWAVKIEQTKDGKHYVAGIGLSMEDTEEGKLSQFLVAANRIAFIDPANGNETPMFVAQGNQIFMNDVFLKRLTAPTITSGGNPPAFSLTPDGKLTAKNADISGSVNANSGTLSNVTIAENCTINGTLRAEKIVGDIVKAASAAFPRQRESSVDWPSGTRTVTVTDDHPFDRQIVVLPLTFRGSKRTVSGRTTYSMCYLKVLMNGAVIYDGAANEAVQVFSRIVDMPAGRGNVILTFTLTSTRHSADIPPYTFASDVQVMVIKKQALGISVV
Briefly: cryo-EM structure; His-tagged gpJ713 purified from E. coli BL21 (DE3) by nickel column and gel filtration; the host's isomerase came along; closed state, C3 symmetry, map at 2.75 Å.

This note sets out measurements from PMC11101478.

These are yes or no findings as the source states them, for the method shown. A result given as binding can be weak or reduced; the word gives no strength.

As to “peptidylprolyl isomerase protein (E. coli (endogenous in BL21 (DE3))) (enzyme)”, the binding entry is “binds”.
